Record: PubChem BioAssay AID1508588 (Peter MacCallum Cancer Centre, 2020)
The whole screen tested about 18,000 reagents; this is a part drawn at random. Of all reagents, 790 (4.4%) were called active. 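Calls rest on a combination of fold-change classes in drug and vehicle arms, not all shown here.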

Test: 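Knock-downs boosting vemurafenib effects on melanoma cell growth or lactate release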 (primary screen)
Cells: human WM266.4 melanoma cells (BRAF V600 mutant)
Reagent: siRNA pool against human genes, 40 nM
Duration: 96 h from transfection to read-out
Treatment: vemurafenib 300 nM (about IC25), added 48 h after transfection, for 48 h; comparison arm got DMSO vehicle only
Measured: 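Cell gain (DAPI nuclei at end minus before drug, mean of two replicates) and medium lactate by absorbance per cell, both as ratio to non-targeting siRNA, also grouped into fold-change classes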
Scale: cell gain with vemurafenib: higher = more cell gain than with non-targeting siRNA; lactate per cell with vemurafenib: higher = more lactate made per cell
Active means: 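a knock-down counts as enhancing when its fold-change classes with vehicle and with vemurafenib, taken together, show a stronger drug effect on cell gain or lactate per cell; exact class pairs not stated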
Calls: active = enhances vemurafenib effect; inactive = no enhancement seen

Gene,cell gain with vemurafenib,lactate per cell with vemurafenib,Call
ENTPD5 (GeneID 957),0.6,0.76,inactive
RNGTT (GeneID 8732),0.3,1.55,inactive
PDILT (GeneID 204474),0.9,0.89,inactive
MAT2A (GeneID 4144),0.05,1.7,inactive
HP1BP3 (GeneID 50809),0.72,0.53,inactive
MS4A6A (GeneID 64231),0.4,0.94,inactive
ENSA (GeneID 2029),0.68,0.32,inactive
TGM4 (GeneID 7047),0.59,0.96,inactive
MSANTD3 (GeneID 91283),0.79,0.4,inactive
SPACA1 (GeneID 81833),0.79,1.52,inactive
ZNF185 (GeneID 7739),1.08,0.4,inactive
FBXL17 (GeneID 64839),0.79,0.52,inactive
RS1 (GeneID 6247),0.71,0.72,inactive
DVL2 (GeneID 1856),0.16,2.38,inactive
RPL22 (GeneID 6146),0.3,1,inactive
GCNT1 (GeneID 2650),0.29,2.41,inactive
SCAMP1 (GeneID 9522),0.73,0.94,inactive
KTN1 (GeneID 3895),0.41,0.74,inactive
RHBDD2 (GeneID 57414),0.43,1.48,inactive
PRSS58 (GeneID 136541),1,0.76,inactive
ADAMTS14 (GeneID 140766),0.16,1.96,inactive
LHPP (GeneID 64077),0.22,0.9,inactive
CRTAM (GeneID 56253),1.02,0.08,active
ADCY6 (GeneID 112),0.48,1.42,inactive
ZBTB25 (GeneID 7597),0.65,1.29,inactive
CCDC198 (GeneID 55195),-0.11,0.88,inactive
XAF1 (GeneID 54739),0.41,0.48,inactive
PRAP1 (GeneID 118471),0.31,1.92,inactive
NTF3 (GeneID 4908),0.01,1.54,inactive
BRD9 (GeneID 65980),0.6,0.64,active
GABRA1 (GeneID 2554),0.64,0.99,inactive
KLHL30 (GeneID 377007),0.63,0.97,inactive
CCR5 (GeneID 1234),0.35,0.76,inactive
ACVR1B (GeneID 91),0.83,0.64,inactive
PRAC1 (GeneID 84366),0.92,0.96,inactive
CSRP3 (GeneID 8048),1.23,0.97,inactive
AASDHPPT (GeneID 60496),0.48,0.78,inactive
NFRKB (GeneID 4798),0.59,0.72,inactive
CRHBP (GeneID 1393),0.4,1.6,inactive
SYN3 (GeneID 8224),0.41,1.1,inactive
CSMD2 (GeneID 114784),1.08,1.02,inactive
SNX29P1 (GeneID 100652781),0.37,1.06,inactive
SIPA1L3 (GeneID 23094),0.69,0.76,inactive
CARMIL2 (GeneID 146206),0.21,0.93,inactive
LGALS3 (GeneID 3958),0.43,0.98,inactive
CSNK2A2 (GeneID 1459),0.58,0.35,active
LENEP (GeneID 55891),0.63,0.69,inactive
PAQR3 (GeneID 152559),0.71,0.68,inactive
LRIG1 (GeneID 26018),0.83,1.05,inactive
KLHDC8A (GeneID 55220),0.08,2.88,inactive
GKAP1 (GeneID 80318),0.61,0.44,active
WWP1 (GeneID 11059),0.83,0.81,inactive
GLIPR1L2 (GeneID 144321),1.16,0.2,inactive
HGF (GeneID 3082),1.09,0.55,inactive
CCNE1 (GeneID 898),0.37,1.06,inactive

Records listed above with an active call:
Gene,cell gain with vemurafenib,lactate per cell with vemurafenib,Call
CRTAM (GeneID 56253),1.02,0.08,active
BRD9 (GeneID 65980),0.6,0.64,active
CSNK2A2 (GeneID 1459),0.58,0.35,active
GKAP1 (GeneID 80318),0.61,0.44,active

Additional reagents follow:
Gene,cell gain with vemurafenib,lactate per cell with vemurafenib,Call
TBCK (GeneID 93627),0.86,0.85,inactive
HINT2 (GeneID 84681),0.23,1.81,inactive
SP140 (GeneID 11262),0.58,1.05,inactive
POMT2 (GeneID 29954),0.11,0.68,active
RAB17 (GeneID 64284),0.57,0.9,inactive
SEC16B (GeneID 89866),1.11,1.02,inactive
CILK1 (GeneID 22858),0.92,0.34,inactive
RWDD2A (GeneID 112611),0.55,2.16,inactive
ARFGEF2 (GeneID 10564),0.68,1,inactive
PLD3 (GeneID 23646),0.57,2.12,inactive
GGT6 (GeneID 124975),0.19,1.41,inactive
CDC25B (GeneID 994),0.41,1.5,inactive
DRGX (GeneID 644168),0.1,2.28,inactive
SRP14 (GeneID 6727),0.11,2.64,inactive
MRPL32 (GeneID 64983),0.7,1.56,inactive
AZIN2 (GeneID 113451),0.86,0.72,inactive
ISOC1 (GeneID 51015),0.39,1.12,inactive
ZNF420 (GeneID 147923),0.53,0.86,inactive
FREM1 (GeneID 158326),0.65,0.82,inactive
GAS2L3 (GeneID 283431),0.45,0.94,inactive
PRMT7 (GeneID 54496),0.43,0.78,inactive
TCEAL9 (GeneID 51186),1.08,0.81,inactive
ZSWIM1 (GeneID 90204),0.71,1.01,inactive
GRSF1 (GeneID 2926),0.18,1.99,inactive
HIPK4 (GeneID 147746),0.67,1.02,inactive
PER2 (GeneID 8864),0.47,0.62,inactive
KYNU (GeneID 8942),0.57,1.36,inactive
PRPF38B (GeneID 55119),0.5,1.42,inactive
PPP6R1 (GeneID 22870),0.54,1.12,inactive
